# Measured values as given in the supplement of paper PMC12823440, “Inhibitors supercharge kinase turnover through native proteolytic circuits” (Nature, 2025).
# The list shows a part of the results. The calls rarely recur for the same compound in another form.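 Kinases, fused to nanoluciferase, were expressed in K562 cells; luminescence was measured every 4 h from 2 to 18 h as percent of control (DMSO = 100%, positive control = 0%). A time point is decreased if signal falls significantly (2 sigma). Hits were called by the authors by a rule that is not shown; the count of time points alone does not decide it.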
# Molecular target: ZAK (UniProt Q9NYL2)
# Assay: number of time points (of 5) at which kinase-Nluc abundance scored as decreased, DMSO-normalised (count); higher = more persistent destabilization
# Settings: K562; 2-18 h
row,Compound,number of time points
1,Cc1ccc(-n2nc(C(C)(C)C)cc2NC(=O)Nc2ccc(OCCN3CCOCC3)cc2)cc1 (10 µM),0
2,c1ccc(Cn2c(-c3ccc(OC[C@H](C4CCNCC4)n4c(-c5ccccc5)nc5ccccc54)cc3)nc3ccccc32)cc1 [Deltarasin] (2.5 µM),0
3,C=CC(=O)N1CC[C@@H](Oc2nc(Nc3ccc(N4CCC(N5CCN(C)CC5)CC4)cc3)c(C(N)=O)nc2CC)C1 [Naquotinib (mesylate)] (2.5 µM),0
4,Cc1cc(O)c2c(c1)C(=O)c1cccc(O)c1C2=O [Chrysophanol] (2 µM),0
5,Cc1cc(C(=O)NC(C)(C)C)cc(C#Cc2ccc3c4c(oc3c2)C(C)(C)c2cc(NS(C)(=O)=O)ccc2C4=O)n1 (10 µM),0
6,Nc1nc(NCCNc2ncc(-n3ccnc3)c(-c3ccc(Cl)cc3Cl)n2)ccc1[N+](=O)[O-] (2.5 µM),0
7,Cn1c(CNc2cccc(C(=O)NCc3ccccc3C(F)(F)F)c2)nnc1-c1ccncc1 (10 µM),0
